The results in this text go back to patent US11952431B2, “Neutrophil-binding peptides” (YISSUM RESEARCH DEVELOPMENT COMPANY OF THE HEBREW …, priority 2020, dated 2024).

This data set relates to mouse and human CD177. The data set is described as follows: Cross binding of 16-LQI and 16-KFP. Conditions: see FIG. 2D, 16-Cont.

As for “16-KFP: biotinylated KFP-tetramer multiantigen generated in the same manner as 16-LQI; tetramer-SA complex used as control on murine neutrophils [Peptide 16-KFP]”, the “cross binding between mouse and human” value is on record as “do not cross bind”. “16-LQI: LQI tetramer-streptavidin (SA) complex, a 16-mer of the LQI-peptide [Peptide 16-LQI]”: the “cross binding between mouse and human” value is on record as “do not cross bind”.
